# Primary screen of a compound library

Chains of the proteins cited; added tags and fusions are not shown.
UniProt E9BF75, entry or part of it: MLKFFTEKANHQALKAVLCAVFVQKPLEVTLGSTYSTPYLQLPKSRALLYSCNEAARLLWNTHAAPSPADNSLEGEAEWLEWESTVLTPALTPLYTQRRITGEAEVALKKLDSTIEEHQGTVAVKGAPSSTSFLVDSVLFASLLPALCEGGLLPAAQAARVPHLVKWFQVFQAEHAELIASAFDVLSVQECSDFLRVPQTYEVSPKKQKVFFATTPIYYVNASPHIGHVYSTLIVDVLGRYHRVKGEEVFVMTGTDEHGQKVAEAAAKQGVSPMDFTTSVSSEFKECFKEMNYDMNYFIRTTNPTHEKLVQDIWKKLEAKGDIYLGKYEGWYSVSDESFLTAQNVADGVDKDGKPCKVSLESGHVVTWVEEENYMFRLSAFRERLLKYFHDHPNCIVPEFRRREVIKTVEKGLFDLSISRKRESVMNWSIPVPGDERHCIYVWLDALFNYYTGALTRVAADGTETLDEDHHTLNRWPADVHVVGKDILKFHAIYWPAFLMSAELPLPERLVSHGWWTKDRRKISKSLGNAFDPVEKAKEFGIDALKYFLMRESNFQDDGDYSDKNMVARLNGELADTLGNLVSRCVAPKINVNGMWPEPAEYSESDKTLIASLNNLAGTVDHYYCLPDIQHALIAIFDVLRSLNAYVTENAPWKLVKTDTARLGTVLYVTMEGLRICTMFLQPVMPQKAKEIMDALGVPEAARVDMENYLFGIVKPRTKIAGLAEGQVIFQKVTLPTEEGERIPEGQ

Mtb heat-shock: 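Assay on Mycobacterium tuberculosis, filed only as a heat shock assay from Cornell; the read-out is not stated. The concentration is filed as 10 mM, unlikely as a test dose, so the dose is not known. The record gives no direction; compounds that gave an IC50 in retests scored well above the rest, so higher reads as stronger inhibition. Size under these conditions: about 69,000 compounds, about 930 of them at 50% or above in at least one test.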
Mtb growth Cornell: 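Whole-cell assay for inhibitors of Mycobacterium tuberculosis growth, labelled Cornell in the record; the read-out is not stated. The concentration is filed as 10 mM, unlikely as a test dose, so the dose is not known. The record gives no direction; compounds strong in two other growth screens of this library score well above the rest, so higher reads as stronger inhibition. Size under these conditions: about 53,000 compounds, about 900 of them at 50% or above in at least one test.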
LdMetRS: 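Methionyl-tRNA synthetase (putative), Leishmania donovani (UniProt E9BF75). Primary screen of methionyl-tRNA synthetase; the read-out is not stated. The test concentration is not given. The values are filed as inhibition. Of about 68,000 compounds tested this way, about 24 (0.035%) reached 50% or more in at least one test.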

Results are percentages, as filed.
The controls that fix the scale are not given in the record; negative values are as filed.
This is an unselected part of the compounds tested.
A dash means the value is not listed here; it may have been measured.

| structure | Mtb heat-shock | Mtb growth Cornell | LdMetRS |
|---|---|---|---|
| `O=C(O)C(F)(F)F.O=C(O)C(F)(F)F.O=C(O)C(F)(F)F.[H][C@]12CCN(Cc3ccccn3)[C@@]1([H])CC[C@H](COCCN1CCCC1)O2` | -2.857 | 22.32 | - |
| `O=C(NC1CC1)[C@H]1CN(Cc2ccc3c(c2)OCO3)C[C@H]2OCC[C@@H]12` | - | - | 9.408 |
| `O=C(O)C1(Cc2cccc(Cl)c2)CCCN(c2ncnc3[nH]ccc23)C1` (centres unmarked) | -15.99 | 31.59 | 22.4 |
| `Cc1ccc(C(=O)N2CCC(c3nccn3C(C)C)CC2)c(=O)[nH]1` | 1.623 | 11.89 | 14.05 |
| `O=C(NCCCN1CCN(c2ncccn2)CC1)Nc1ccccn1` | -2.227 | 17.24 | 0.4819 |
| `[H][C@@]12COC[C@]1([H])[C@@H](OCCN(C)C)CN2C(=O)c1ccc2c(c1)OCO2` | -9.064 | 20.18 | - |
| `CC(C)=CCC1(CO)CCCN(S(C)(=O)=O)C1` (centres unmarked) | -1.337 | - | 6.015 |
| `Cc1cc(C(=O)NC(C)Cc2cccc(Cl)c2)n(C)n1` (centres unmarked) | 0.543 | - | 6.443 |
| `c1cc(N2CCOCC(Cc3ccc4[nH]ccc4c3)C2)ncn1` (centres unmarked) | 15.67 | 9.694 | 14.19 |
| `O=C(c1cccnc1)N1CCN(CC2CC2)c2ncccc2C1` | -48.87 | -15.99 | 0.2882 |
| `O=C(O)C(F)(F)F.[H][C@@]12CN(CCOC)C[C@]1([H])[C@@H](OC)CCN2C(=O)Cc1ccccc1` | -32.22 | - | - |
| `CC(O)CN1CCC(CN(C)CCC(=O)NC2CCCCC2)CC1` (centres unmarked) | -18.8 | -2.018 | -1.292 |
| `COc1ccnc(N2CCCN(C(=O)Cc3ccc(C)s3)CC2)n1` | -10.56 | - | 12.15 |
| `O=C(O)C(F)(F)F.[H][C@]12CC[C@@]3(N=C(CC)N(CC4CC4)C3=O)[C@@]1([H])CN(CC1CC1)C2` | -34.88 | 12.34 | - |
| `CCOc1ccc(-c2cc(CCN)ccc2OC)cc1` | 28.22 | 1.642 | 12.1 |
| `O=C(CC1CCCC1)N1CCC(c2cc3ncccc3c(O)n2)CC1` | 63.36 | -42.1 | 20 |
| `CC1CCc2nc(O)c(C(=O)NCCN(C)C)cc2C1` (centres unmarked) | -3.375 | - | 7.884 |
| `Cc1csc(CNC(=O)NCC(O)c2cccc(Cl)c2)n1` (centres unmarked) | -5.882 | - | 11.23 |
| `CCN(CCO)C(=O)C1CCC(=O)N(Cc2cccc(OC)c2)C1` (centres unmarked) | 1.583 | -40.17 | 17.1 |
| `Cc1oncc1C(=O)N1CCC2(CC1)C(c1cnn(C)c1)CC(=O)N2C` (centres unmarked) | -42.15 | -3.99 | 6.667 |
| `CN(CCNC(=O)Nc1ccn(C)n1)Cc1ccc(F)cc1` | 8.139 | -13.51 | 9.288 |
| `Cc1noc(CCNS(=O)(=O)N2CCCC2c2ccco2)n1` (centres unmarked) | -0.2099 | -9.163 | -1.742 |
| `[H][C@@]12C[C@H](C)O[C@@]1([H])CCN(C(=O)COC)C2` | -1.773 | -4.539 | - |
| `CN(C)C1CC2(CCN(C(=O)NC3CC3)CC2)c2ccccc21.O=C(O)C(F)(F)F` (centres unmarked) | 10.46 | -24.99 | - |
| `COCc1cncc2c1CCN(C(=O)c1ccc(C#N)cc1)C2.O=C(O)C(F)(F)F` | 3.349 | 16.67 | - |
| `CN(C)c1cc(C(=O)NCc2cccnc2-n2cncn2)ccn1` | 2.82 | 19.06 | 19.25 |
| `Cc1cc(=O)n2ncnc2n1CC(O)c1ccccc1` (centres unmarked) | 3.846 | 2.464 | 11.24 |
| `COc1nc2c(cc1C(=O)N(C)Cc1noc3c1CCCC3)CCC2` | 0.1909 | -14.34 | 20.41 |
| `CN(C)c1ncccc1CNCc1cccc(O)c1` | -0.4342 | 31.15 | 17.54 |
| `O=C(O)C(F)(F)F.O=C(c1cccs1)N1CCCC2(COCCN(c3cccnc3)C2)C1` (centres unmarked) | -3.07 | 18.63 | - |
| `CN(CCN(C)S(=O)(=O)CC1CCOCC1)c1ccccc1` | -22.09 | - | 13.09 |
| `CN(C)C(=O)CCNC(=O)Nc1cccc(Cl)c1-n1cccn1` | -25.45 | -9.255 | 9.399 |
| `COCCN1C(=O)[C@H]2CC[C@@H]1CN(C(=O)CCc1n[nH]c(C)c1C)C2` | - | - | 5.46 |
| `CCN(Cc1cccc(C)c1)Cc1nc2c(cnn2C)c(=O)[nH]1` | 2.637 | - | 23.2 |
| `Cc1nc2cc(C3CCN(C(=O)c4ccccn4)CC3)nn2c(O)c1C` | -29.55 | -53.63 | -4.688 |
| `CCCOc1ccc(Cl)cc1NC(=O)NCCC(=O)N(C)C` | -10.39 | 8.896 | 10.67 |
| `CC(C)n1nc(CN2CCCC2=O)c2c1CN(C(=O)c1ccno1)C2` | 16.48 | 5.318 | 11.43 |
| `CCn1ccnc1CN1CCN(CCc2ccncc2)CC1C` (centres unmarked) | -17.7 | 9.961 | 6.812 |
| `CCCc1c(C(=O)N2CCN(Cc3ccccn3)CC2)cnn1C` | 0.3465 | 4.227 | 18.13 |
| `CC(C)n1cnnc1CN(C)Cc1ccc(CO)o1` | 1.334 | - | 14.09 |
| `O=C(Nc1cc(CSCCO)ccn1)c1cc2ccccc2[nH]1` | -38.88 | 7.668 | 14.7 |
| `Cn1cc(C(=O)Nc2ccc3c(c2)N(C(=O)c2ccco2)CC3)nn1` | 5.79 | - | 10.38 |
| `O=C(NCCc1cc2nc(-c3ccncc3)ccn2n1)C1CCOCC1` | 8.056 | 23.81 | 9.688 |
| `Cc1ccc2nc(C(=O)N3C[C@@H](C(=O)O)[C@H](c4cccnc4)C3)cn2c1` | 5.257 | 11.51 | 20.25 |
| `[H][C@@]12CCCO[C@]1([H])[C@H](NC(=O)C1CC1)CN2Cc1cccs1` | 12.55 | 0.8674 | - |
| `O=C(CN(C1=NCCCC1)c1ccccc1)c1ccc2c(c1)OCCO2` | - | - | 13.99 |
| `COCCOC[C@]1(CNCc2ccc(F)cc2)C[C@@H](O)[C@@H](O)C1` | - | - | 2.747 |
| `CC(=O)NCC(=O)N1C[C@H](OCc2cccnc2)[C@H]2COC[C@H]21` | - | - | 16.19 |
| `COc1ccccc1OC1(C(=O)O)CCN(c2cc(C)nc(C)c2)CC1` | -25.54 | -0.2823 | 10.09 |
| `CC(CNCc1ccc(F)cc1)Oc1ccccn1` (centres unmarked) | - | - | 9.394 |
| `O=C(NCc1nnc2n1CCC2)N1CCc2sccc2C1` | -32.57 | - | 21.31 |
| `CCOc1nnc(CN2CCC(c3cc4ccccc4[nH]3)CC2)s1` | -23.64 | 13.59 | 12.53 |
| `CN(CCc1ccccn1)C1CCCN(Cc2noc(C3CC3)n2)C1` (centres unmarked) | 28.73 | 4.076 | 20.85 |
| `[H][C@@]12COC[C@@H](CC(=O)NCCOC)[C@]1([H])CN(C(=O)C1CCOCC1)C2` | 5.481 | -8.487 | - |
| `CN(c1cccnc1N1CCCC1)S(=O)(=O)c1cccs1` | 17.54 | - | 12.22 |
| `Cc1cc(C(=O)O)cc(S(=O)(=O)Nc2ccc3c(c2)OCCO3)c1C` | 6.77 | - | 19.2 |
| `CC1CCCCN1C(=O)COc1nc(C(C)(C)C)no1` (centres unmarked) | 2.395 | -38.45 | 12.15 |
| `COc1ccc(N2CCN(C(=O)[C@@H]3C[C@@H](O)CN3)CC2(C)C)cc1` | -51.58 | -0.923 | 4.693 |
| `O=C(O)C(F)(F)F.[H][C@@]12CCCO[C@]1([H])[C@H](OCc1cccnc1)CN2C(=O)c1cnccn1` | -23.96 | -55.56 | - |
| `CC(=O)N1CCC(C(=O)NCCN2CCCCC2)CC1` | -4.077 | 13.42 | 10.62 |
| `COc1cc(S(=O)(=O)Nc2cn[nH]c2)ccc1Br` | 7.808 | - | 17.96 |
| `Cc1ccccc1CCCN1CCS(=O)(=O)CC1C` (centres unmarked) | -24.23 | 46.6 | 14.02 |
| `CC1(c2ncc(CN3CCOCC3)cn2)CCCCO1` (centres unmarked) | 2.95 | -14.97 | 15.7 |
| `CC(C)c1ncncc1C(=O)NCCN1CCCC1` | -3.274 | -7.366 | 11.17 |
| `COc1ccc2c(c1)C1(CCN(Cc3ccccn3)CC1)N(C)CC2` | - | - | 15.07 |
| `CNC(=O)N1CCC(=Cc2ccccc2)CC1` | -18.39 | 50.2 | 13.71 |
| `CC1CCCN(CCCNC(=O)c2cn(C)nc2-c2cccnc2)C1` (centres unmarked) | -2.321 | 11.06 | 10.6 |
| `COCC(=O)N1CCN(Cc2cc(F)cc(Br)c2)CC1` | -9.865 | 35.92 | 20.4 |
| `CCSC1=Nc2c(cnn2-c2ccc(Cl)cc2)C2=NCCCN12` | 2.688 | - | 9.143 |
| `CC(=O)Nc1cccc(CN2CCN(C3=NCC(C)(C)S3)CC2)c1` | -0.5286 | 4.557 | 10.21 |
| `Nc1nccnc1CC1CCCN(Cc2ccnc3ccccc23)C1` (centres unmarked) | 21.68 | 1.938 | 4.199 |

For reference, 4 entries once more:

structure	Mtb heat-shock	Mtb growth Cornell	LdMetRS
CN(CCc1ccccn1)C1CCCN(Cc2noc(C3CC3)n2)C1 (centres unmarked)	28.73	4.076	20.85
CN(C)C(=O)CCNC(=O)Nc1cccc(Cl)c1-n1cccn1	-25.45	-9.255	9.399
COc1ccccc1OC1(C(=O)O)CCN(c2cc(C)nc(C)c2)CC1	-25.54	-0.2823	10.09
CC(O)CN1CCC(CN(C)CCC(=O)NC2CCCCC2)CC1 (centres unmarked)	-18.8	-2.018	-1.292

Source: ChEMBL document CHEMBL3988442, “University of Dundee, Small-Polar-MMV Screening Library” (2021).